Results as given in patent publication US20150218629.
Changes are numbered by the printed parent chain. For at least one entry, the source does not settle the construct or the ends of the probe. Where a protein sequence is shown, tags need not be part of it.

Legend:
[1] = tested on: T1, TrwC Cba Q276C 3.4 kDa PEG homodimer (Citromicrobium bathyomarinum); assay: activity assay; details: TT plus 28 iSpC3 spacers at 5' end of SEQ 88; four iSpC3 spacers between SEQ 88 and SEQ 104; MspA nanopore; percent long-dwell controlled movements; 625 mM KCl, 10 mM MgCl2, 5 mM dTTP, +120 mV; purified recombinant protein; single-stranded DNA
T1 sequence: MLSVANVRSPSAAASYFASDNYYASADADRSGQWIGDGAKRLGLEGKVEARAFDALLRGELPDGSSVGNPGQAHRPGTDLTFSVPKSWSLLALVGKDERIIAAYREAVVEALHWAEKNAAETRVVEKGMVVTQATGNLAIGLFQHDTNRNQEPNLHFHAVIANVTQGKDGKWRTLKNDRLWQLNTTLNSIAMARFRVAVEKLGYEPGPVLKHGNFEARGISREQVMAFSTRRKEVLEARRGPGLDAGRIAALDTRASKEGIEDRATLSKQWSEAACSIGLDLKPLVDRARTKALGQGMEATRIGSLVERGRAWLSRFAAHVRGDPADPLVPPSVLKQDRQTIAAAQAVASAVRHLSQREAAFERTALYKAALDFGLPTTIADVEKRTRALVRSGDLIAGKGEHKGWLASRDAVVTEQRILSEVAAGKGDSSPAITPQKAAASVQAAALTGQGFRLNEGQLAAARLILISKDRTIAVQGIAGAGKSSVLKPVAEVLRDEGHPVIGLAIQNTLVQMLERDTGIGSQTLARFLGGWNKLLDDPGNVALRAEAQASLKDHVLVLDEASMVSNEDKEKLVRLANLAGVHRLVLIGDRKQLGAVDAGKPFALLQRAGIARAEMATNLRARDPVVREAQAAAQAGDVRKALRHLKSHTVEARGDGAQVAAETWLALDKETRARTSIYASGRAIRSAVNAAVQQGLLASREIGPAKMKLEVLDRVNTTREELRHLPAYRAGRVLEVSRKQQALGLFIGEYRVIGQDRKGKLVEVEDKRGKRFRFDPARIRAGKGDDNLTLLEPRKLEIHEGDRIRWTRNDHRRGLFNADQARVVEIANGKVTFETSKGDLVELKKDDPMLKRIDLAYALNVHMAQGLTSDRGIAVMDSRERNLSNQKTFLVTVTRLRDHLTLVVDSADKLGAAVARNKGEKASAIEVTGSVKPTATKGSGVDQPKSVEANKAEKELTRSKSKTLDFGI

[2] = tested on: T2, TrwC Cba monomer (Citromicrobium bathyomarinum); assay: activity assay; details: TT plus 28 iSpC3 spacers at 5' end of SEQ 88; four iSpC3 spacers between SEQ 88 and SEQ 104; MspA nanopore; percent long-dwell controlled movements; 625 mM KCl, 10 mM MgCl2, 5 mM dTTP, +120 mV; purified recombinant protein; single-stranded DNA
T2 sequence: T1 sequence with C276Q

Sequence: TTTTTTTTTTTTTTTTTTTTTTTTTTTTTTTTTTTTTTTTTTTTTTGGTTGTTTCTGTTGGTGCTGATATTGCGCCATCAGATTGTGTTTGTTAGTCGCTTTTTTTTTTTGGAATTTTTTTTTTGGAATTTTTTTTTTGACGCTCAGTAATGTGACGATAGCTGAAAACTGTACGATAAACGGTACGCTGAGGGCGGAAAAAATCGTCGGGGACATTGTAAAGGCGGCGAGCGCGGCTTTTCCGCGCCAGCGTGAAAGCAGTGTGGACTGGCCGTCAGGTACCCGTACTGTCACCGTGACCGATGACCATCCTTTTGATCGCCAGATAGTGGTGCTTCCGCTGACGTTTCGCGGAAGTAAGCGTACTGTCAGCGGCAGGACAACGTATTCGATGTGTTATCTGAAAGTACTGATGAACGGTGCGGTGATTTATGATGGCGCGGCGAACGAGGCGGTACAGGTGTTCTCCCGTATTGTTGACATGCCAGCGGGTCGGGGAAACGTGATCCTGACGTTCACGCTTACGTCCACACGGCATTCGGCAGATATTCCGCCGTATACGTTTGCCAGCGATGTGCAGGTTATGGTGATTAAGAAACAGGCGCTGGGCATCAGCGTGGTCTGAGTGTGAAAAAAAAGGTACCAAAAAAAACATCGTCGTGAGTAGTGAACCGTAAGC [iSpC3-spacer DNA strand of Example 9]
- activity on this sequence [1]: 20%
- activity on this sequence [2]: 5%
